Data published in patent US20100048686A1, “Perfume Composition For Temperature Sense Control, Sense Control Article, Sense Control Method, And Perfume Map” (SHISEIDO CO., LTD., priority 2003, published 2010).
The amount applied is not stated for every result.

System: test subjects
Assay: assessment of temperature image and aroma image words of raw material perfumes on odor paper/cotton
Assay type: in vivo, human
Settings: average; for Aroma image word: Transparent: seven-point scale 0 (do not feel at all) to 6 (strongly feel); for Aroma image word: Bracing / Aroma image word: Bright / Aroma image word: Mild / Aroma image word: Sultry / Aroma image word: Sweet / Aroma image word: Thick: seven-point scale 0 to 6

Row | SMILES | Aroma image word: Transparent | Aroma image word: Bracing | Aroma image word: Bright | Aroma image word: Mild | Aroma image word: Sultry | Aroma image word: Sweet | Aroma image word: Thick
1 | CC(C=O)Cc1ccc(C(C)(C)C)cc1 (stereo not drawn) [B, 4-tert-butyl-α-methylhydroxycinnamic aldehyde] | 3.8 | 2.8 | 3.8 | 3.6 | 2.1 | 3.6 | 2.2
2 | COc1cc(C=O)ccc1O [C, vanillin] | 2.0 | 1.2 | 3.6 | 4.5 | 3.2 | 4.9 | 3.8
3 | CC1=CC(C)C(C=O)CC1 (stereo not shown) [E, 2,4-dimethyl-3-cyclohexenyl carboxyaldehyde] | 3.2 | 2.9 | 3.1 | 2.5 | 1.6 | 2.6 | 2.1
4 | CCCCCCCC1CCC(=O)O1 (stereo not shown) [G, γ-undecalactone] | 2.6 | 1.5 | 4.1 | 3.9 | 2.1 | 4.3 | 2.9
